Test results from the supplement of paper PMC10849652.
This is one part of the list.

The chains behind the UniProt entries cited, without tags or fusion partners. Where a name states a change or a piece, a line headed by the entry shows the natural chain unless it says otherwise.
UniProt P17900: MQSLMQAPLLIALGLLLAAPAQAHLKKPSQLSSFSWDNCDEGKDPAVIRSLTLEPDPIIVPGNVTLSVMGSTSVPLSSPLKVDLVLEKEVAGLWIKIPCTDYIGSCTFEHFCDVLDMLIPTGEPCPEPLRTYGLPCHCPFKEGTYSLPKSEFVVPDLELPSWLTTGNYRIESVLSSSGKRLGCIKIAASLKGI
UniProt P43304: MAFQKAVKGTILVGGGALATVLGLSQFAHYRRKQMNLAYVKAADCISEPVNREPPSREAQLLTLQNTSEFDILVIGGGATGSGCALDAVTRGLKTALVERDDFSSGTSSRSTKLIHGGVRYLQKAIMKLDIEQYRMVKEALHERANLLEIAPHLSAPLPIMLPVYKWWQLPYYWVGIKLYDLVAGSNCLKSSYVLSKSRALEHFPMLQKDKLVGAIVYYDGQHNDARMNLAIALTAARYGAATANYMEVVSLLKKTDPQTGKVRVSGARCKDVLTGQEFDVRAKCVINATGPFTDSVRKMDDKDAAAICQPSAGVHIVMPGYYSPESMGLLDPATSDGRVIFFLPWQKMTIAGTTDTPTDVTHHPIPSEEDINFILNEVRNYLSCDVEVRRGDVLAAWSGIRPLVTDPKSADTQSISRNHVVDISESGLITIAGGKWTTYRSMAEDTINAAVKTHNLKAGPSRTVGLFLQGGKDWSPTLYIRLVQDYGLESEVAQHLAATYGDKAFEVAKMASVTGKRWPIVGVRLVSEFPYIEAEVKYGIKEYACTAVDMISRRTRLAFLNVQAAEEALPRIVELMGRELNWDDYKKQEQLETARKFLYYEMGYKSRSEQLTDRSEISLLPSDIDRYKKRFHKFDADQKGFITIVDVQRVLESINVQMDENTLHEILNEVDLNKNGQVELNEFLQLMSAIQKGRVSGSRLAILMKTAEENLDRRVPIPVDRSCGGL
UniProt Q3T906: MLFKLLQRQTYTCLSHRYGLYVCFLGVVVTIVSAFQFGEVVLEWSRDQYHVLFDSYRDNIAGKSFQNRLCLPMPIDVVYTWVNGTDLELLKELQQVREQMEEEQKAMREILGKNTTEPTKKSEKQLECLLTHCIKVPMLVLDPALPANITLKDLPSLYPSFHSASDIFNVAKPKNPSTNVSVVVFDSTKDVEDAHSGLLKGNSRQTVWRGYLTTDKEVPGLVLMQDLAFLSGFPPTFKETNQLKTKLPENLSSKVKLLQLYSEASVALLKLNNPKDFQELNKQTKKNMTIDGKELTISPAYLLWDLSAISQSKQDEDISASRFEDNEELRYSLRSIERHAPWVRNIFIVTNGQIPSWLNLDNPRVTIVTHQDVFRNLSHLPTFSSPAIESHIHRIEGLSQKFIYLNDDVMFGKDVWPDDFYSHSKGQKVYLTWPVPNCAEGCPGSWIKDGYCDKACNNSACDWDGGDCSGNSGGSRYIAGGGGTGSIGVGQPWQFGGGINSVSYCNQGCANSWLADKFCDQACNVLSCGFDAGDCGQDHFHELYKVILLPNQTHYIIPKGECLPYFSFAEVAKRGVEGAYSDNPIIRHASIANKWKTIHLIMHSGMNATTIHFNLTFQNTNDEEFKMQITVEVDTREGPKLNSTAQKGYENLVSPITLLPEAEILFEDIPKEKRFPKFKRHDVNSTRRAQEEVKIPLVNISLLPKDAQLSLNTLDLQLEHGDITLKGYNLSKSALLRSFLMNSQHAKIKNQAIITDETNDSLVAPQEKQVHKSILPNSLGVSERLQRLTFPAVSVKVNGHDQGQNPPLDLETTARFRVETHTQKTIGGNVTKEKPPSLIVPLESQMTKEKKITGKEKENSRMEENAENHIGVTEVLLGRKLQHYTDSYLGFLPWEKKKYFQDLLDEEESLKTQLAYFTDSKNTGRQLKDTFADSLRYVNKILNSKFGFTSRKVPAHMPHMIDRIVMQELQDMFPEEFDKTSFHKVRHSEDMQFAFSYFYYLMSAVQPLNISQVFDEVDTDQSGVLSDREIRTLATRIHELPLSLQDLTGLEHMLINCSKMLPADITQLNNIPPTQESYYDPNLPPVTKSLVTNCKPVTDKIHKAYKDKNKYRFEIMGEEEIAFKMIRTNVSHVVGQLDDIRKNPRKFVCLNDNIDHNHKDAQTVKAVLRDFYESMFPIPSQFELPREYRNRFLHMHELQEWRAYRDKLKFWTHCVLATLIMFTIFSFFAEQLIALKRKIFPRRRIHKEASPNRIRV
UniProt P36915, whole entry, looked up: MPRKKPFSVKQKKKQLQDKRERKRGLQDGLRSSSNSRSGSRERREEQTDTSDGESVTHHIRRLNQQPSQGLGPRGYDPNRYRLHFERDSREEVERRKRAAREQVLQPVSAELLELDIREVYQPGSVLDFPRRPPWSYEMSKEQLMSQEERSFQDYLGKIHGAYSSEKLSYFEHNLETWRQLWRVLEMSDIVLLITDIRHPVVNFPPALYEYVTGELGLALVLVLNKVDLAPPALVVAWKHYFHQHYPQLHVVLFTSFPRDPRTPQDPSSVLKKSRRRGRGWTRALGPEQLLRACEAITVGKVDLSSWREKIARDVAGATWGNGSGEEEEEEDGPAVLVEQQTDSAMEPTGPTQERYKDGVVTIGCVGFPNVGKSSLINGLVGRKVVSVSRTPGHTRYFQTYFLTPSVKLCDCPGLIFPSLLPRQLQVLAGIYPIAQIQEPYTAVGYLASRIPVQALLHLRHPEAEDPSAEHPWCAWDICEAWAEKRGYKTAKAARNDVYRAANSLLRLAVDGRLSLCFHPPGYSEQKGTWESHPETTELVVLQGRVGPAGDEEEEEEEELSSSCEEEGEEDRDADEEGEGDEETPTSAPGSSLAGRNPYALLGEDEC
UniProt P35754: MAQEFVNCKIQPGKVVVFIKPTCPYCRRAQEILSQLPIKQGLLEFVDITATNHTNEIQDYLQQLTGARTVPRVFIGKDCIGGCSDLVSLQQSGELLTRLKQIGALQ
UniProt O60547: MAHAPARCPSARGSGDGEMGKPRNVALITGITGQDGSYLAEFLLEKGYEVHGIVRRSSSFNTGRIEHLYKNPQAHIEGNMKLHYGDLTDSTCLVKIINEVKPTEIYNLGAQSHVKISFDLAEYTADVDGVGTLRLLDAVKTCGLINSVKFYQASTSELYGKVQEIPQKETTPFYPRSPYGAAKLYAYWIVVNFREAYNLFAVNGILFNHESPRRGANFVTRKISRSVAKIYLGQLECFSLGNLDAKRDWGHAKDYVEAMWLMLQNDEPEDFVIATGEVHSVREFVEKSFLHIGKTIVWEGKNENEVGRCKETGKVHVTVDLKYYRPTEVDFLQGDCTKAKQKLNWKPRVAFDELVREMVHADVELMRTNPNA
UniProt Q04760: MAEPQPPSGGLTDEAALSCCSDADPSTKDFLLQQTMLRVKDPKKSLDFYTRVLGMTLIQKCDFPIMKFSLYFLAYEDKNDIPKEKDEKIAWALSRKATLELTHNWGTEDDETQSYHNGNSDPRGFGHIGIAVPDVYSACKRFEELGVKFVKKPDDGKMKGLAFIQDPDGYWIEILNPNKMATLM
UniProt Q9BQQ3: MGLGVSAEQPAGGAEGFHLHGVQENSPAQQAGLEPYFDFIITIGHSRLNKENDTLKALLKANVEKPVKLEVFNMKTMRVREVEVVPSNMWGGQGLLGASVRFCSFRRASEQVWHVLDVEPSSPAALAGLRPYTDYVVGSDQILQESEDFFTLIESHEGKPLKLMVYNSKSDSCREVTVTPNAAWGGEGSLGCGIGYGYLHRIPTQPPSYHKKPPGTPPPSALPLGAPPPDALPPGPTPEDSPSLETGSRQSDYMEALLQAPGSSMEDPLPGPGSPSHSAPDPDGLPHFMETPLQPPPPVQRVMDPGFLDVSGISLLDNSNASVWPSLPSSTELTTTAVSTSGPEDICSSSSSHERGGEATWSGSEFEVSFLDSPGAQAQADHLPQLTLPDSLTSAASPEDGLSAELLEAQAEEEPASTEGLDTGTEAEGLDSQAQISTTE
UniProt Q8TF64: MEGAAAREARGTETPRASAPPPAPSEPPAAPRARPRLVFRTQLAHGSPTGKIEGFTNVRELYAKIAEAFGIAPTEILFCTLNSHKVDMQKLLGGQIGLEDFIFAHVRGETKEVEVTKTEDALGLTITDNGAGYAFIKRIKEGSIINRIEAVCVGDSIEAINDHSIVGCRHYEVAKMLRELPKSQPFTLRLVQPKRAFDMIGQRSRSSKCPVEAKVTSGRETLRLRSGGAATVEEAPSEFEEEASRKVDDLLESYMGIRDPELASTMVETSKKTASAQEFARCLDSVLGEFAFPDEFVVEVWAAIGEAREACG
UniProt P63096, whole entry, looked up: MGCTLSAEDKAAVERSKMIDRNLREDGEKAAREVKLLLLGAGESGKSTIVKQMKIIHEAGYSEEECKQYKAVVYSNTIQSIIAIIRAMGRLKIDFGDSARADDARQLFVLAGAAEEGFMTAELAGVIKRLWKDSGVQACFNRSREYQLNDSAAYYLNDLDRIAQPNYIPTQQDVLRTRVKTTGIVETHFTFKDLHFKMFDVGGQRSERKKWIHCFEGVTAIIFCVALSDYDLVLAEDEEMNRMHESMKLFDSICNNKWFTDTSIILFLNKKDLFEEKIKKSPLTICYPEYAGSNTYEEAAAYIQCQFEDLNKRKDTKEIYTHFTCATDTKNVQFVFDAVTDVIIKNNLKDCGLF
UniProt Q96I76: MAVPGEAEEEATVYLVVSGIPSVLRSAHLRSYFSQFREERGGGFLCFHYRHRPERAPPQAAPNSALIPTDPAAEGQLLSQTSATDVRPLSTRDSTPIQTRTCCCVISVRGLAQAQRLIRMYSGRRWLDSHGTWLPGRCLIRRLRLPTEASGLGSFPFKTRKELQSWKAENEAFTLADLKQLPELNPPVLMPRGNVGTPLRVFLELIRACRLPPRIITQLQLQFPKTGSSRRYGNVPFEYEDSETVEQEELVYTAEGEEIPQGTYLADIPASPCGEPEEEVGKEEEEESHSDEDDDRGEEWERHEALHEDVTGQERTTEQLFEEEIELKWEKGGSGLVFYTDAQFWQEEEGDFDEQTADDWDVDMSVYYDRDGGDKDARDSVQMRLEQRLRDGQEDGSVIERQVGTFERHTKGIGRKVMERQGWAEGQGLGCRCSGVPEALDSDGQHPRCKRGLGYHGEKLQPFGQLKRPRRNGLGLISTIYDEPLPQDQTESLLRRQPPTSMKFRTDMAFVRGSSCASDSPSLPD
UniProt P81274: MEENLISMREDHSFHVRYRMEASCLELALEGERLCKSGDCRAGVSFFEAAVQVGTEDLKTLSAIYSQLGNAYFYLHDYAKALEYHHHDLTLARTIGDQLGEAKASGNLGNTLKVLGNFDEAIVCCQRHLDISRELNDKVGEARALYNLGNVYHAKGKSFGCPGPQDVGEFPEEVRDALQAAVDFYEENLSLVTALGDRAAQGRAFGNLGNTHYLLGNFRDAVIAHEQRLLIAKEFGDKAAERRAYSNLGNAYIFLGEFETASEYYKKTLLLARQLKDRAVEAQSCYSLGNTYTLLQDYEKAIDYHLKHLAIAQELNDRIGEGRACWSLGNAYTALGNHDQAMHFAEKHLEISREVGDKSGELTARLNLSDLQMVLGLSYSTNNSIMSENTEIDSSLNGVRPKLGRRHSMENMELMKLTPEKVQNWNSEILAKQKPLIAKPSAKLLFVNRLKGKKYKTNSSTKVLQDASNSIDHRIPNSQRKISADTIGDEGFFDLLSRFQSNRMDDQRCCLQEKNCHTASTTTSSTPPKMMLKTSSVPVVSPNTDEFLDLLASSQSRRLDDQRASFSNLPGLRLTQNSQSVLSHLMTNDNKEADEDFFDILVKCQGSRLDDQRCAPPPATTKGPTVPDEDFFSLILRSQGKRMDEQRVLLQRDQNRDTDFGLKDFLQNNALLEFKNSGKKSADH
UniProt Q9HCN4, whole entry, looked up: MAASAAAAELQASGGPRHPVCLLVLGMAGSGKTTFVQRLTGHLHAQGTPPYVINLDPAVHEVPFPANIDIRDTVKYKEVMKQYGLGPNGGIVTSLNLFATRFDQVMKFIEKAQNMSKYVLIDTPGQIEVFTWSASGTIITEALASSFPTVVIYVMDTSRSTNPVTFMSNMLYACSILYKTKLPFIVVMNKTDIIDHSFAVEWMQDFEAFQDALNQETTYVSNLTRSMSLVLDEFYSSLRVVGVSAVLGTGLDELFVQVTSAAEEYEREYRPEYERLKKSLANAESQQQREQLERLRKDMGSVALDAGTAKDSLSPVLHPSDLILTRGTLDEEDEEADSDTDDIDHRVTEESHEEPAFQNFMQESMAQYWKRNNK
UniProt P63218: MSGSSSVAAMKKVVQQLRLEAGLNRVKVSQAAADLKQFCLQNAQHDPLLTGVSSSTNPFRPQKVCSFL
UniProt Q9NU53: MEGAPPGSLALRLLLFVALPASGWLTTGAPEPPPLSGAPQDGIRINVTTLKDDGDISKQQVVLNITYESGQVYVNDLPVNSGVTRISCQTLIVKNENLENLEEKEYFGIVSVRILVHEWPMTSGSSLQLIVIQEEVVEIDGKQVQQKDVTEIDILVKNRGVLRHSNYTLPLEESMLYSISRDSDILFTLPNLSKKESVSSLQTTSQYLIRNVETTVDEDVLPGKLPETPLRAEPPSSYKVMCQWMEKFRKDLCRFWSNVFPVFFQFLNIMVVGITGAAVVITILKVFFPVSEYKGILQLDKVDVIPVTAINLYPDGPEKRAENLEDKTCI

Legend:
Assay in all cases: log2 fold change, soluble protein after heating vs DMSO (PISA); higher = thermal stabilisation; K562 lysate, 10 uM; active = over 0.2 and 3.5 SD of the protein, either way, in both replicates (recomputed)
[1] = compound: C1=CC=C(C=C1)[C@H](COC2=CC3=C(C=C2)NC(=O)N3)NC(=O)C4=CC=CN(C4=O)CC5=CC(=C(C=C5)F)F
Procedure, shortened: (§1)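 K562 pellets were dounce-homogenised in PBS pH 7.4 with 1 mM MgCl2, and the crude extract at 1 mg/mL protein was treated with 10 μM compound for 30 min. Aliquots were heated for 3 min across 48°C-58°C, pooled, and brought to 0.5% NP-40 at 4°C; soluble protein was the supernatant after 21,000xg for 90 min. Soluble protein was quantified by TMTpro 16plex LC-MS/MS with channel sums equalised, and reported as log2 fold change in thermal stability against DMSO controls, with values from duplicates.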

[2] = compound: CC1=C(SC2=C1C(=N[C@H](C3=NN=C(N32)C)CC(=O)N)C4=CC=C(C=C4)Cl)C
Procedure, shortened: as §1

[3] = compound: CC1=C2C(=CC=C1)N=C(N(C2=O)C3=CC=CC=C3C)CN4C=NC5=C(N=CN=C54)N
Procedure, shortened: as §1

[4] = compound: Cc1sc2c(c1C)C(c1ccc(Cl)cc1)=N[C@@H](CC(=O)OC(C)(C)C)c1nnc(C)n1-2
Procedure, shortened: as §1

[5] = compound: c1ccc([C@@H]2C[C@H]2NC2CCNCC2)cc1
Procedure, shortened: as §1

Measured: log2 fold change

GM2A (UniProt P17900)
inactive: [1] -0.049 | [2] 0.042 | [3] 0.027 | [4] 0.002 | [5] 0.007

GIT1 (UniProt Q9Y2X7)
inactive: [1] 0.013 | [2] -0.008 | [3] 0.009 | [4] 0.093 | [5] 0.073

GGACT (UniProt Q9BVM4)
inactive: [1] 0.026 | [2] 0.078 | [3] 0.066 | [4] 0.113 | [5] -0.045

GLMP (UniProt Q8WWB7)
inactive: [3] -0.027 | [4] 0.187

GPD2 (UniProt P43304)
inactive: [1] 0.031 | [2] 0.009 | [3] 0.014 | [4] -0.009 | [5] 0.003

GPNMB (UniProt Q14956)
inactive: [1] 0.12 | [2] 0.127 | [4] -0.482 | [5] -0.507

GNPTAB (UniProt Q3T906)
inactive: [1] -0.001 | [2] 0.17 | [4] 0.039 | [5] -0.055

GNL1 (UniProt P36915)
inactive: [1] -0.026 | [2] 0.022 | [3] 0.041 | [4] -0.024 | [5] 0.063

GPATCH2L (UniProt Q9NWQ4)
inactive: [4] -0.105

GOLIM4 (UniProt F8W785)
inactive: [5] 0.08

GPLD1 (UniProt P80108)
inactive: [4] 0.209

GLRX (UniProt P35754)
inactive: [3] -0.026

GMDS (UniProt O60547)
inactive: [1] -0.003 | [2] -0.014 | [3] 0.042 | [4] 0.033 | [5] 0.005

GLO1 (UniProt Q04760)
inactive: [1] 0.019 | [2] -0.006 | [3] -0.023 | [4] -0.058 | [5] -0.035

GORASP1 (UniProt Q9BQQ3)
inactive: [3] -0.049 | [4] -0.031 | [5] 0.042

GIPC3 (UniProt Q8TF64)
inactive: [1] -0.002 | [2] 0.042 | [4] 0.013 | [5] -0.075

GMPPB isoform 2 (UniProt Q9Y5P6)
inactive: [1] -0.051 | [2] -0.042 | [3] 0.045 | [4] 0 | [5] 0.03

GNAI1 (UniProt P63096)
inactive: [5] -0.109

GNG12 (UniProt Q9UBI6)
inactive: [3] 0 | [5] 0.001

GPATCH3 (UniProt Q96I76)
inactive: [5] 0.018

GPSM2 (UniProt P81274)
inactive: [1] 0.07 | [2] 0.087 | [3] 0.054 | [4] -0.068 | [5] -0.101

GPRC5C isoform 2 (UniProt Q9NQ84)
inactive: [5] 0.04

GLIPR2 (UniProt Q9H4G4)
inactive: [1] 0.028 | [2] 0.005 | [3] 0.014 | [4] 0.059 | [5] 0.045

GLCE (UniProt O94923)
inactive: [1] -0.176 | [2] -0.012 | [4] -0.063 | [5] 0.105

GNL3 (UniProt Q9BVP2)
inactive: [1] 0.018 | [2] 0.087 | [3] 0.006 | [4] -0.023 | [5] 0.041

GPN1 isoform 5 (UniProt Q9HCN4)
inactive: [1] 0 | [2] 0.027 | [3] 0.007 | [4] 0.03 | [5] 0.032

GNG5 (UniProt P63218)
inactive: [1] -0.078 | [2] 0.049 | [3] 0.016 | [4] 0.05 | [5] 0.141

GORAB (UniProt Q5T7V8)
inactive: [1] 0.131 | [2] -0.002 | [3] -0.02 | [4] -0.034 | [5] 0.06

GPR89A (UniProt B7ZAQ6)
inactive: [1] -0.016 | [2] 0.005 | [3] 0.076 | [4] -0.027 | [5] 0.012

GINM1 (UniProt Q9NU53)
inactive: [5] -0.497

GOLGB1 isoform 4 (UniProt Q14789)
inactive: [4] -0.126

GPCPD1 (UniProt Q9NPB8)
inactive: [1] 0.004 | [2] 0.024 | [3] 0.029 | [4] 0.035 | [5] -0.033
